{"source": "PubChem BioAssay AID504786 (Drosophila RNAi Screening Center, 2011)", "aim": "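Knock-downs reducing HIF reporter induction by the iron chelator DFO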 (primary screen)", "cell system": "Drosophila S2 cells with a stable HIF luciferase reporter", "reagents": "long dsRNA against Drosophila genes, about 0.2 µg dsRNA per well of a 384-well plate", "duration": "three days of knock-down, then 20 h of DFO before reading", "conditions": "desferrioxamine (DFO) at 100 µM, an iron chelator that mimics hypoxia, for 20 h", "measurement": "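HIF reporter luminescence in cells given 100 µM DFO for 20 h, using the mouse ldh-a hypoxia-response element, scored as per-plate z-scores; higher means greater loss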", "scale": "z-score: higher = stronger loss of HIF reporter signal", "note": "The deposit covers about 21,000 reagents; below is an unselected part of those with a known target gene and a result. 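Primary screen; positive scores mean lost reporter signal, so the sign may be inverted from the usual convention.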 A plus sign joins genes that one reagent is predicted to hit. Further read-outs or replicates are left out here."}
{"Gene":"CG2063","amplicon":"DRSC06811","z-score, replicate 1":-0.1}
{"Gene":"ana1 (anastral spindle 1)","amplicon":"DRSC16079","z-score, replicate 1":-0.3}
{"Gene":"bi (bifid)","amplicon":"DRSC18742","z-score, replicate 1":-0.3}
{"Gene":"mus201 + Chrac-14","amplicon":"DRSC03568","z-score, replicate 1":-0.3}
{"Gene":"mus201 + Chrac-14","amplicon":"DRSC03575","z-score, replicate 1":-0.2}
{"Gene":"Mppe (Metallophosphoesterase)","amplicon":"DRSC07296","z-score, replicate 1":-0.4}
{"Gene":"SmF (Small ribonucleoprotein particle protein SmF)","amplicon":"DRSC07397","z-score, replicate 1":4.8}
{"Gene":"ft (fat)","amplicon":"DRSC00819","z-score, replicate 1":-0.2}
{"Gene":"cup","amplicon":"DRSC03516","z-score, replicate 1":-0.2}
{"Gene":"lectin-46Ca","amplicon":"DRSC06612","z-score, replicate 1":-0.2}
{"Gene":"CG31705","amplicon":"DRSC01991","z-score, replicate 1":1.6}
{"Gene":"CG15642","amplicon":"DRSC19678","z-score, replicate 1":-0.3}
{"Gene":"CG6094","amplicon":"DRSC02927","z-score, replicate 1":-0.4}
{"Gene":"CG13921","amplicon":"DRSC08390","z-score, replicate 1":-0.1}
{"Gene":"prt (portabella)","amplicon":"DRSC16894","z-score, replicate 1":-0.2}
{"Gene":"CG3702","amplicon":"DRSC00628","z-score, replicate 1":-0.4}
{"Gene":"CG31145","amplicon":"DRSC13634","z-score, replicate 1":0}
{"Gene":"CG31145","amplicon":"DRSC14206","z-score, replicate 1":1.3}
{"Gene":"CG31145","amplicon":"DRSC14670","z-score, replicate 1":4.6}
{"Gene":"CG31145","amplicon":"DRSC14671","z-score, replicate 1":0.5}
{"Gene":"ND-B14.7 (NADH dehydrogenase (ubiquinone) B14.7 subunit)","amplicon":"DRSC04544","z-score, replicate 1":0.7}
{"Gene":"Ssb-c31a (Single stranded-binding protein c31A)","amplicon":"DRSC03443","z-score, replicate 1":-0.3}
{"Gene":"CG7214","amplicon":"DRSC03028","z-score, replicate 1":-0.3}
{"Gene":"Gar1 (Gar1 ribonucleoprotein)","amplicon":"DRSC04441","z-score, replicate 1":0.3}
{"Gene":"CG13060","amplicon":"DRSC09943","z-score, replicate 1":-0.1}
{"Gene":"CG15127","amplicon":"DRSC05802","z-score, replicate 1":-1.2}
{"Gene":"CG15127","amplicon":"DRSC06549","z-score, replicate 1":-0.3}
{"Gene":"CG7970","amplicon":"DRSC08605","z-score, replicate 1":-0.3}
{"Gene":"CG15743","amplicon":"DRSC19709","z-score, replicate 1":-0.1}
{"Gene":"rdgA (retinal degeneration A)","amplicon":"DRSC17863","z-score, replicate 1":-0.1}
{"Gene":"rdgA (retinal degeneration A)","amplicon":"DRSC18036","z-score, replicate 1":-0.1}
{"Gene":"rdgA (retinal degeneration A)","amplicon":"DRSC18827","z-score, replicate 1":-0.3}
{"Gene":"GstD1 (Glutathione S transferase D1)","amplicon":"DRSC16683","z-score, replicate 1":-0.3}
{"Gene":"CG5388","amplicon":"DRSC15789","z-score, replicate 1":-0.7}
{"Gene":"wdp (windpipe)","amplicon":"DRSC04367","z-score, replicate 1":-0.3}
{"Gene":"CG32187","amplicon":"DRSC10521","z-score, replicate 1":-0.2}
{"Gene":"CG1622","amplicon":"DRSC19745","z-score, replicate 1":-0.4}
{"Gene":"tej (tejas)","amplicon":"DRSC07219","z-score, replicate 1":-0.4}
{"Gene":"CG30385","amplicon":"DRSC06031","z-score, replicate 1":-0.3}
{"Gene":"CG34032 (retired record)","amplicon":"DRSC09225","z-score, replicate 1":0.2}
{"Gene":"CG32700","amplicon":"DRSC17857","z-score, replicate 1":-0.4}
{"Gene":"CG32700","amplicon":"DRSC17858","z-score, replicate 1":-0.3}
{"Gene":"CG14650","amplicon":"DRSC12236","z-score, replicate 1":-0.2}
{"Gene":"Bacc (Bacchus)","amplicon":"DRSC00735","z-score, replicate 1":0.1}
{"Gene":"Patr-1 (Protein associated with topo II related - 1)","amplicon":"DRSC14159","z-score, replicate 1":-0.2}
{"Gene":"c12.1","amplicon":"DRSC18750","z-score, replicate 1":-0.2}
{"Gene":"CG1532","amplicon":"DRSC20516","z-score, replicate 1":-0.4}
{"Gene":"Art9 (Arginine methyltransferase 9)","amplicon":"DRSC16584","z-score, replicate 1":-0.4}
{"Gene":"lectin-29Ca","amplicon":"DRSC02635","z-score, replicate 1":-0.3}
{"Gene":"CG18178","amplicon":"DRSC10302","z-score, replicate 1":-0.4}
{"Gene":"CG14810","amplicon":"DRSC17693","z-score, replicate 1":-0.2}
{"Gene":"CG14810","amplicon":"DRSC17961","z-score, replicate 1":-0.1}
